Changes are numbered by the printed parent chain. No constants are given. Whether binding was seen depends on the method and setting. Some results given as binding are weak or reduced against the parent protein; the word gives no strength.
B1: 155A9B1 chimeric antibody (antibody, V domains shown)
VH: QVQLKESGPGLVQPSQTLSLTCTVSGFSLTSYNVHWVRQPPGKGLEWMGRVRYNGDTSYNSALKSRLSISRDTSKNQAFLKMNSLQIDDTGTYYCTRGPYGGSSEPLFDYWGQGVMVTVSS
VL: DIKMTQSPSFLSASVGDRVTINCKASQNINKYLNWFQQKLGEAPRLLIYTTNNLQTGIPSRFSGSGSGTDFTLTISSLQPEDVATYFCLQHNSGYTFGAGTKLELK
B2: Hu155A9B1-12 (antibody, V domains shown)
VH: EVQLQESGPGLVKPSETLSLTCTVSGFSLTSYNVHWVRQPPGKGLEWMGRVRYNGDTSYNSALKSRLTISRDTSKNQASLKLSSVTAADTAVYYCTRGPYGGSSEPLFDYWGQGTMVTVSS
VL: B1 VL with K3Q, F10S, N22T, L40P, E42K, V83F, F87Y, A99Q, L105I
B3: 192A7B9 chimeric antibody (antibody, V domains shown)
VH: B1 VH with T21N, V51M, A78V, I87T, Y100R, S103Y, S104Y, E105S, P106A
VL: DIQMTQSPSFLSASVGDRVTINCKASQNINRYLNWYQQKLGDAPKVLISIANSLQTGIPSRFSGSGSGTDFTLTISSLQPEDVATYFCLQHNSWYTFGAGTKLELK
B4: Hu155A9B1-7 (antibody, V domains shown)
VH: B2 VH with F27G, L29I, T30S, V37I, M48I, L67V, R71V, A78F, T96A
VL: B1 VL with K3Q, F10S, N22T, L40P, E42K, V83F, F87Y, A99Q, L105I
B5: Hu155A9B1-13 (antibody, V domains shown)
VH: B2 VH with F27G, L29I, T30S, V37I, M48I, L67V, R71V, A78F, T96A
VL: B1 VL with K3Q, F10S, N22T, L40P, E42K, V83F, A99Q, L105I
B6: Hu155A9B1-16 (antibody, V domains shown)
VH: B2 VH with F27G, L29I, T30S, A78F
VL: B1 VL with K3Q, F10S, N22T, L40P, E42K, V83F, A99Q, L105I
B7: Hu155A9B1-8 (antibody, V domains shown)
VH: B2 VH with F27G, L29I, T30S, M48I, L67V, A78F, T96A
VL: B1 VL with K3Q, F10S, N22T, L40P, E42K, V83F, F87Y, A99Q, L105I
B8: Hu155A9B1-14 (antibody, V domains shown)
VH: B2 VH with F27G, L29I, T30S, M48I, L67V, A78F, T96A
VL: B1 VL with K3Q, F10S, N22T, L40P, E42K, V83F, A99Q, L105I
B9: Hu155A9B1-17 (antibody, V domains shown)
VH: B2 VH with L29I, T30S
VL: B1 VL with K3Q, F10S, N22T, L40P, E42K, V83F, A99Q, L105I
B10: Hu155A9B1-11 (antibody, V domains shown)
VH: B2 VH with L29I, T30S
VL: B1 VL with K3Q, F10S, N22T, L40P, E42K, V83F, F87Y, A99Q, L105I
B11: Hu155A9B1-10 (antibody, V domains shown)
VH: B2 VH with F27G, L29I, T30S, A78F
VL: B1 VL with K3Q, F10S, N22T, L40P, E42K, V83F, F87Y, A99Q, L105I
B12: Hu155A9B1-9 (antibody, V domains shown)
VH: B2 VH with F27G, L29I, T30S, A78F, T96A
VL: B1 VL with K3Q, F10S, N22T, L40P, E42K, V83F, F87Y, A99Q, L105I
B13: Hu155A9B1-15 (antibody, V domains shown)
VH: B2 VH with F27G, L29I, T30S, A78F, T96A
VL: B1 VL with K3Q, F10S, N22T, L40P, E42K, V83F, A99Q, L105I
B14: Hu155A9B1-18 (antibody, V domains shown)
VH: B2 VH
VL: B1 VL with K3Q, F10S, N22T, L40P, E42K, V83F, A99Q, L105I
B15: Hu153A6B1-1 (antibody, V domains shown)
VH: EVQLQESGPGLVKPSETLSLTCTVSGGSISSYNIHWIRQPPGKGLEWIGRIRYNGDTSYNSALKSRVTISVDTSKNQFSLKLSSVTAADTAVYYCARGPYGGSREPLFDYWGQGTMVTVSS
VL: DIQMTQSPSSLSASVGDRVTITCKTSQNINKYLNWYQQKPGKAPKLLIYTTNNLQTGVPSRFSGSGSGTDFTLTISSLQPEDFATYYCLQHGSGYTFGQGTKLEIK
B16: Hu153A6B1-3 (antibody, V domains shown)
VH: B15 VH with I37V, I48M, V67L, V71R
VL: B15 VL
B17: Hu153A6B1-13 (antibody, V domains shown)
VH: B15 VH
VL: B15 VL with Y36F, V58I, Y87F
B18: Hu192A7B9-4 (antibody, V domains shown)
VH: B2 VH with F27G, L29I, T30S, V51M, A78F, Y100R, S103Y, S104Y, E105S, P106A
VL: B15 VL with T25A, K31R, T50I, T51A, N53S, G92N, G94W
B19: Hu153A6B1-5 (antibody, V domains shown)
VH: B2 VH with L29I, T30S, V34I, V51I, A78V, S104R
VL: B15 VL
B20: Hu153A6B1-16 (antibody, V domains shown)
VH: B15 VH with I37V, I48M, V67L, V71R, A96T
VL: B15 VL with Y36F, V58I, Y87F
B21: Hu153A6B1-18 (antibody, V domains shown)
VH: B2 VH with V34I, V51I, A78V, S104R
VL: B15 VL with Y36F, V58I, Y87F
B22: Hu153A6B1-15 (antibody, V domains shown)
VH: B15 VH with I37V, I48M, V67L, V71R
VL: B15 VL with Y36F, V58I, Y87F
B23: Hu155A9B1-2 (antibody, V domains shown)
VH: B15 VH with I34V, I37V, I51V, V71R, R104S
VL: B15 VL with T25A, K45R, G92N
B24: Hu153A6B1-17 (antibody, V domains shown)
VH: B2 VH with L29I, T30S, V34I, V51I, A78V, S104R
VL: B15 VL with Y36F, V58I, Y87F
B25: Hu155A9B1-6 (antibody, V domains shown)
VH: B2 VH
VL: B15 VL with T25A, K45R, G92N
B26: Hu192A7B9-1 (antibody, V domains shown)
VH: B15 VH with I34V, I51M, Y100R, S103Y, R104Y, E105S, P106A
VL: B15 VL with T25A, K31R, T50I, T51A, N53S, G92N, G94W
B27: Hu153A6B1-12 (antibody, V domains shown)
VH: B2 VH with V34I, V51I, A78V, S104R
VL: B15 VL with Y36F, V58I
B28: Hu155A9B1-1 (antibody, V domains shown)
VH: B15 VH with I34V, I51V, R104S
VL: B15 VL with T25A, K45R, G92N
B29: Hu153A6B1-10 (antibody, V domains shown)
VH: B15 VH with I37V, I48M, V67L, V71R, A96T
VL: B15 VL with Y36F, V58I
B30: Hu192A7B9-5 (antibody, V domains shown)
VH: B2 VH with L29I, T30S, V51M, A78V, Y100R, S103Y, S104Y, E105S, P106A
VL: B15 VL with T25A, K31R, T50I, T51A, N53S, G92N, G94W
B31: Hu153A6B1-9 (antibody, V domains shown)
VH: B15 VH with I37V, I48M, V67L, V71R
VL: B15 VL with Y36F, V58I
B32: Hu155A9B1-3 (antibody, V domains shown)
VH: B2 VH with F27G, L29I, T30S, A78F, T96A
VL: B15 VL with T25A, K45R, G92N
B33: Hu153A6B1-7 (antibody, V domains shown)
VH: B15 VH
VL: B15 VL with Y36F, V58I
B34: Hu192A7B9-2 (antibody, V domains shown)
VH: B15 VH with I34V, I37V, I51M, V71R, Y100R, S103Y, R104Y, E105S, P106A
VL: B15 VL with T25A, K31R, T50I, T51A, N53S, G92N, G94W
B35: Hu153A6B1-8 (antibody, V domains shown)
VH: B15 VH with I37V, V71R
VL: B15 VL with Y36F, V58I
B36: Hu153A6B1-11 (antibody, V domains shown)
VH: B2 VH with L29I, T30S, V34I, V51I, A78V, S104R
VL: B15 VL with Y36F, V58I
B37: Hu155A9B1-5 (antibody, V domains shown)
VH: B2 VH with L29I, T30S
VL: B15 VL with T25A, K45R, G92N
B38: Hu155A9B1-4 (antibody, V domains shown)
VH: B2 VH with F27G, L29I, T30S, A78F
VL: B15 VL with T25A, K45R, G92N
B39: Hu153A6B1-2 (antibody, V domains shown)
VH: B15 VH with I37V, V71R
VL: B15 VL
B40: Hu153A6B1-14 (antibody, V domains shown)
VH: B15 VH with I37V, V71R
VL: B15 VL with Y36F, V58I, Y87F
B41: Hu153A6B1-4 (antibody, V domains shown)
VH: B15 VH with I37V, I48M, V67L, V71R, A96T
VL: B15 VL
B42: Hu153A6B1-6 (antibody, V domains shown)
VH: B2 VH with V34I, V51I, A78V, S104R
VL: B15 VL
B43: Hu192A7B9-3 (antibody, V domains shown)
VH: EVQLQESGPGLVKPSETLSLTCTVSGGSISSYNVHWVRQPPGKGLEWMGRMRYNGDTSYNSALKSRLTISRDTSKNQFSLKLSSVTAADTAVYYCARGPRGGYYSALFDYWGQGTMVTVSS
VL: B15 VL with T25A, K31R, T50I, T51A, N53S, G92N, G94W

Amino acid sequences for entries named in this document (tags omitted). A change or cut given only in a name is not applied to a line headed by its entry.
UniProt P07766: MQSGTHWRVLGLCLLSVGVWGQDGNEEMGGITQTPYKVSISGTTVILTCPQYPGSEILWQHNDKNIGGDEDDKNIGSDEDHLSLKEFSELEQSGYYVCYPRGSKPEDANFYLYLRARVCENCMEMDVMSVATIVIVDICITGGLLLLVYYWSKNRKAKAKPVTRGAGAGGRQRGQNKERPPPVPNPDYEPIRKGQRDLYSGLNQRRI
UniProt P04234: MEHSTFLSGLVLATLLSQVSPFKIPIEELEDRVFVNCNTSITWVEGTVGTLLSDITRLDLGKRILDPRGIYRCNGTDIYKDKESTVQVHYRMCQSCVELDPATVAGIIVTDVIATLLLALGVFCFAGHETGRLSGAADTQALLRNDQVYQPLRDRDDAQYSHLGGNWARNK

What follows are binders tested against human CD3 protein (human) (UniProt P07766+P04234) (assay: ELISA).

binding	Binder
binds	B1
binds	B2
binds	B3
binds	B4
binds	B5
binds	B6
binds	B7
binds	B8
binds	B9
binds	B10
binds	B11
binds	B12
binds	B13
binds	B14
binds	B15
binds	B16
binds	B17
binds	B18
binds	B19
binds	B20
binds	B21
binds	B22

binding	Binder
binds	B23
binds	B24
binds	B25
binds	B26
binds	B27
binds	B28
binds	B29
binds	B30
binds	B31
binds	B32
binds	B33
binds	B34
binds	B35
binds	B36
binds	B37
binds	B38
binds	B39
binds	B40
binds	B41
binds	B42
binds	B43
